## Screening data, single-dose tests

Data taken from ChEMBL document CHEMBL3988442, “University of Dundee, Small-Polar-MMV Screening Library” (2021).

Mtb cholesterol medium: 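Whole-cell growth test on Mycobacterium tuberculosis, read after 4 days in a medium based on cholesterol and the lipid DPPC; the read-out is not stated. Tested at 50 µM. The record gives no direction; compounds that gave an IC50 in retests scored well above the rest, so higher reads as more growth inhibition. Size under these conditions: about 69,000 compounds, about 370 of them at 50% or above in at least one test.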
Mtb glucose medium: 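Phenotypic screen: M. tuberculosis growth, glucose 7H9 medium, 3 days; the read-out is not stated. Tested at 50 µM. Higher reads as more growth inhibition (inferred: compounds with an IC50 in retests scored well above the rest). About 69,000 compounds were tested under these conditions; 1.1% (about 760) showed 50% or more at least once.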

Values are the deposited “Percent Effect”, in %.
The controls that fix the scale are not given in the record; negative values are as filed.
The compounds are a random part of those screened.
Two or more numbers in one place are separate tests of the same structure; such repeats can differ widely.

For CCn1ncc2c1C(COCC1CC1)N(Cc1nccs1)CC2.O=C(O)C(F)(F)F.O=C(O)C(F)(F)F (stereo unspecified) the result was Mtb cholesterol medium: 8.703%; Mtb glucose medium: -24.25% and -2.26%.
For CCCc1ccc2oc(C(=O)N3CCCN(C)CC3)c(C)c2c1 the result was Mtb cholesterol medium: 38.69%; Mtb glucose medium: 48.7%.
For O=C(O)CCc1nc2nccc(-c3ccc(F)cc3)n2n1 the result was Mtb cholesterol medium: -24.85%; Mtb glucose medium: -5.798%.
For N[C@H]1CN(S(=O)(=O)N2CCCC2)C[C@@H]1c1ccccc1 the result was Mtb cholesterol medium: 4.646%; Mtb glucose medium: 27.35%.
For CSCc1cccc(S(=O)(=O)N2CCC(C)CC2)c1 the result was Mtb cholesterol medium: -11.37%; Mtb glucose medium: 6.438%.
For N#Cc1cn(C2CC2)c(=O)n(Cc2ncc(-c3cccs3)o2)c1=O the result was Mtb cholesterol medium: 1.877%; Mtb glucose medium: -2.392%.
For CCC(NC(=O)C1CCN(C(C)C)CC1)c1cn2cccnc2n1 (stereo unspecified) the result was Mtb cholesterol medium: -11.02% and 7.171%; Mtb glucose medium: 25.24%.
For CSc1ccccc1NC(=O)CCC(=O)N(C)C1CCN(C)CC1 the result was Mtb cholesterol medium: -10.39%; Mtb glucose medium: -8.168%.
For CC(Cn1cccn1)C(=O)N1CCC(Nc2cccnn2)CC1 (stereo unspecified) the result was Mtb cholesterol medium: 0.5084% and -6.448%; Mtb glucose medium: -22.23% and 2.746%.
For CC(C)N1CCOC(Cc2nn3c(Cc4ccccc4)nnc3s2)C1 (stereo unspecified) the result was Mtb cholesterol medium: -20.16%; Mtb glucose medium: -7.695%.
For Cc1cccc(NC2CCN(C(=O)Nc3ccncc3)CC2)n1 the result was Mtb cholesterol medium: 7.227%; Mtb glucose medium: -3.858% and -2.954%.
For CCOc1ncccc1NC(=O)NCC(O)c1ccccc1OC (stereo unspecified) the result was Mtb cholesterol medium: 6.401%; Mtb glucose medium: 22.63%.
For CN(Cc1nc(-c2cccnc2)no1)C(=O)c1cnc2n1CCCC2 the result was Mtb cholesterol medium: -0.1006%; Mtb glucose medium: -2.752%.
For CCOC(=O)c1nnc2ccccc2c1N1CCOC(C)(C)C1 the result was Mtb cholesterol medium: -10.18%; Mtb glucose medium: -2.52% and -18.44%.
For Cc1nc2c(c(NC(C)C)n1)CCN(C(=O)c1cc[nH]n1)CC2.O=C(O)C(F)(F)F the result was Mtb cholesterol medium: 2.542%; Mtb glucose medium: -11.54% and -7.665%.
For NC1CCCCN(Cc2cc(-c3ccccc3OC(F)(F)F)no2)C1 (stereo unspecified) the result was Mtb cholesterol medium: 43.41%; Mtb glucose medium: 50.09%.
For Cn1cc(CN2CCCC3(CCN(Cc4cccnc4)C3=O)C2)cn1 (stereo unspecified) the result was Mtb cholesterol medium: -5.815%; Mtb glucose medium: -5.639%.
For O=C(O)C(F)(F)F.[H][C@@]12CN(Cc3ccco3)C[C@]1([H])C(=O)N(c1cncnc1)C2 the result was Mtb cholesterol medium: -2.316%; Mtb glucose medium: 15.45% and 3.598%.
For CN(C(=O)CNC(=O)CC(C)(C)C)C1CCN(c2ccccn2)CC1 the result was Mtb cholesterol medium: 9.882%; Mtb glucose medium: 17.65%.
For c1cnn(CC2CN(Cc3nc(-c4ccsc4)no3)CCO2)c1 (stereo unspecified) the result was Mtb cholesterol medium: 0.2846%; Mtb glucose medium: -28.44%.
For Cc1cnc(C(=O)N2CCCN(Cc3cnn(C(C)C)c3)CC2)cn1 the result was Mtb cholesterol medium: -0.5139% and -25.17%; Mtb glucose medium: 9.21%.
For COc1cccc(OCc2cc(C(=O)N3CC(O)C3)n[nH]2)c1 the result was Mtb cholesterol medium: -22.98%; Mtb glucose medium: -7.773%.
For COc1cccc(CN2CC3(CCNCC3)CCC2=O)c1OC the result was Mtb cholesterol medium: -4.951%; Mtb glucose medium: -4.037%.
For NCCC(=O)NCC1(O)CCCN(c2ccnc3cccnc23)C1 (stereo unspecified) the result was Mtb cholesterol medium: -16.91% and -0.1538%; Mtb glucose medium: 1.816%.
For CC(C)Cc1noc(CN2CCN(C(=O)c3cccs3)CC2)n1 the result was Mtb cholesterol medium: 9.1%; Mtb glucose medium: -5.551%.
For Fc1ccc(CNCC2Cn3nncc3CO2)cc1.O=C(O)C(F)(F)F (stereo unspecified) the result was Mtb cholesterol medium: -3.691%; Mtb glucose medium: -5.27% and 3.872%.
For CCC(c1ccccc1)S(=O)(=O)CCO (stereo unspecified) the result was Mtb cholesterol medium: -6.653%; Mtb glucose medium: 29.33%.
For Cc1nc(C)n(CC2CCCN2CCCOc2ccc(C#N)cc2)n1 (stereo unspecified) the result was Mtb cholesterol medium: 17.06%; Mtb glucose medium: -3.057%.
For Cc1nn(C)cc1S(=O)(=O)N(C)[C@@H]1CCC[C@@H](n2ccnc2)[C@@H]1O the result was Mtb cholesterol medium: -9.946%; Mtb glucose medium: 3.952%.
For CCOCC1CN(C(=O)C2CCOCC2)Cc2cnn(C)c21 (stereo unspecified) the result was Mtb cholesterol medium: -13.78%; Mtb glucose medium: -30.27%.
For Cc1nnsc1C(=O)NCc1nn(C2CCCC2)c2c1CCCC2 the result was Mtb cholesterol medium: 7.038%; Mtb glucose medium: 22.57%.
For Cc1cccc(C(=O)N2CC[C@]3(C[C@H](OCc4ccccn4)CO3)C2)c1.O=C(O)C(F)(F)F the result was Mtb cholesterol medium: 20.42% and 29.39%; Mtb glucose medium: -25.11%.
For N#CC1(C(=O)NCc2ccc(F)cc2)CCCC1 the result was Mtb cholesterol medium: -17.3%; Mtb glucose medium: 3.398%.
For CCC[C@@H]1CN(Cc2cc3c(cc2OC)OCCO3)C[C@H]1C(=O)O the result was Mtb cholesterol medium: -0.3692% and -8.028%; Mtb glucose medium: -11.16%.
For COc1cccc(CN(C)C(=O)NCc2c(C)cc(C)[nH]c2=O)c1 the result was Mtb cholesterol medium: -21.76%; Mtb glucose medium: 29.07%.
For CCc1cc(C(=O)N2CCCn3nc(CCC(=O)O)cc3C2)cs1 the result was Mtb cholesterol medium: -2.119% and -2.198%; Mtb glucose medium: -17.92%.
For CC(C)n1nc2c(cc1=O)CN(CCOc1cccc(C#N)c1)CC2 the result was Mtb cholesterol medium: 2.609%; Mtb glucose medium: -11.95%.
For COc1ccc(-c2nc(C#N)c(N(C)C)o2)cc1S(=O)(=O)N(C)C the result was Mtb cholesterol medium: 0.7735%; Mtb glucose medium: -3.353% and 2.486%.
For Cn1ccc2cc(C(=O)N3CCOCC3)ccc21 the result was Mtb cholesterol medium: 5.337%; Mtb glucose medium: -17.29%.
For Cc1cccc(Sc2nccn(C)c2=O)c1 the result was Mtb cholesterol medium: 18.9%; Mtb glucose medium: 24.55%.
For Cc1cc(C)n(CC2CN(Cc3cc(C)on3)CCO2)n1 (stereo unspecified) the result was Mtb cholesterol medium: 23.83%; Mtb glucose medium: 40.25%.
For CC1CN(C)c2ccccc2N(C(=O)c2c[nH]c(C(C)C)n2)C1 (stereo unspecified) the result was Mtb cholesterol medium: -13.23%; Mtb glucose medium: -10.66%.
For O=C(NCc1nnnn1-c1ccccc1)c1ccc(C2CCCO2)s1 (stereo unspecified) the result was Mtb cholesterol medium: -4.706%; Mtb glucose medium: 18.17%.
For Cc1ccoc1C(=O)NC1CCN(Cc2ccccc2F)CC1 the result was Mtb cholesterol medium: -16.81%; Mtb glucose medium: 21.08%.
For O=C(O)C(F)(F)F.[H][C@]12CCN(Cc3ccc4c(c3)OCO4)[C@@]1([H])C[C@H](C(=O)N(C)C)O2 the result was Mtb cholesterol medium: -21.06%; Mtb glucose medium: -17.13%.